{"source": "PubChem BioAssay AID1508600", "about": "(Functional Genomics Laboratory (NCATS/FGL), 2020)", "note": "Hit rate of the full screen: of about 53,000 sequences, about 3,700 (7%) were called active.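 Rule for the calls: active = gene knockdowns whose robust z-score for IL-1 alpha signal is at least 2 or at most -2, so actives lie on both sides; inactive = the rest.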 The list shows a part of the results."}
{"experiment": "Components of the Cytosolic LPS Sensing Pathway: Gene Identification via Genome-wide siRNA Screen;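 note: robust z of the log signal after scaling to non-targeting control siRNA wells of the plate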", "conditions": "RAW264.7 macrophages, IL-1a HTRF, actives lie on both sides, screened at 100 nM (by protocol), cells primed 5 h with Pam3CSK4 first", "summary_of_the_method": "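Knockdown: 100 nM siRNA, 48h, RAW264.7. Stimulation: Pam3CSK4 5 h, then LipidA via TransIT-TKO 24 h. Output: supernatant IL-1a HTRF, negative-control-normalized, log robust z-score; viability by CellTiter-Glo.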"}
{"sequence": "GGCUGUCCGUACCUAUAAATT against Cpb1", "z-score": "inactive: -1.26"}
{"sequence": "GGAGAAUGAACAGACAGAGTT against Slc39a14", "z-score": "active: -2.06"}
{"sequence": "GGAGUCCUUUAAGAUUAUATT against Pex13", "z-score": "inactive: 1.3"}
{"sequence": "GGGUUACAGAAUCUGUUAATT against Nup153", "z-score": "inactive: -0.112"}
{"sequence": "GGAAGUGAAAGGUAAAUAGTT against Cyb5r3", "z-score": "inactive: -1.35"}
{"sequence": "GCACUGACGACAAAAGUUCTT against Ngdn", "z-score": "inactive: -0.407"}
{"sequence": "GGCAUGUGAUCUACCAAUCTT against Ly6g5b", "z-score": "inactive: 0.0456"}
{"sequence": "GCUGAAUCACAAGUACUGGTT against Ublcp1", "z-score": "inactive: -1.58"}
{"sequence": "GGAGCAGAACAUUAUCUUCTT against Tnn", "z-score": "inactive: 0.603"}
{"sequence": "GGGAAUACAUUUGAGAUGATT against Ptgfrn", "z-score": "inactive: -1.75"}
{"sequence": "GGAAGAUGCCUUUUCCAAGTT against Syt1", "z-score": "inactive: 0.752"}
{"sequence": "GCGCAUCAGAGUCUCAUAATT against Hivep1", "z-score": "inactive: -1.39"}
{"sequence": "CCGAAGACUAGCUAAUUUUTT against Sult1c1", "z-score": "inactive: 1.17"}
{"sequence": "CCUAUCUAUGACCUCACAUTT against Rorb", "z-score": "inactive: -0.277"}
{"sequence": "GGUAAAUUACAAAGUGAAGTT against Prxl2a", "z-score": "inactive: -1.88"}
{"sequence": "GCAUUUAGUGAGUUCAGUGTT against Kirrel3os", "z-score": "inactive: 0.855"}
{"sequence": "CCUGAGGUUACAAGACGGUTT against Dll3", "z-score": "inactive: 1.56"}
{"sequence": "GGCUCAGAAACAACAGGCUTT against Sh2d3c", "z-score": "inactive: -1.19"}
{"sequence": "GGCCAUAGAAAUAAUGCUATT against Dcaf8", "z-score": "inactive: 0.454"}
{"sequence": "GCGGCUGAUACACUUUGUATT against Maob", "z-score": "inactive: -0.515"}
{"sequence": "GGACCUGGAUUUGUGCUUUTT against Smim3", "z-score": "inactive: -1.04"}
{"sequence": "CCUUGCUACGGAUUGGAGATT against Spint4", "z-score": "inactive: 0.1"}
{"sequence": "GGCUACCGUGAAGAUGGAGTT against Fabp6", "z-score": "inactive: -0.537"}
{"sequence": "GCUGAAACAUCGGUAUGAGTT against Pla2g4c", "z-score": "inactive: -0.0845"}
{"sequence": "UGAUAUUUGGUGUAUUCAGTT against Olfr972", "z-score": "active: -2.06"}
{"sequence": "GGGUGACUUAGAAUUCUGUTT against Diras1", "z-score": "inactive: 0.368"}
{"sequence": "GGUCCUUUGUCUAUAUCAATT against Suv39h1", "z-score": "inactive: 1.25"}
{"sequence": "CCAAAAAAUCCUAUACUCUTT against Cdh8", "z-score": "inactive: 1.42"}
{"sequence": "GGAAGAAGUGGAUGCUGGATT against Hecw1", "z-score": "inactive: -0.0276"}
{"sequence": "GCUGAUGACCACUGAGUUUTT against Tsr2", "z-score": "inactive: 1.34"}
{"sequence": "GCUAUUAAAGAGCCCACAATT against Sh3glb2", "z-score": "inactive: -0.49"}
{"sequence": "GGGUGUCAAUCUAAAACAUTT against Cby1", "z-score": "inactive: -0.998"}
{"sequence": "GGCCUGGAAUAGAUUUGUGTT against 2210016L21Rik", "z-score": "inactive: 0.855"}
{"sequence": "CGGAUUGACAAGUUUGCUATT against Tmem129", "z-score": "inactive: -0.355"}
{"sequence": "GAAGACUCUCCAUUGGGUGTT against Lce1g", "z-score": "inactive: 1.33"}
{"sequence": "GGAUAAAACUGGUUACUCUTT against Adgrf1", "z-score": "inactive: 0.193"}
{"sequence": "GGAGAGCAGUAUGAGAUCUTT against Galnt10", "z-score": "inactive: -0.379"}
{"sequence": "GCACUCAGAACAACUAAAATT against Dglucy", "z-score": "inactive: 0.641"}
{"sequence": "GGCUUUGGCUCCAUUAUUCTT against Trmt6", "z-score": "inactive: -0.545"}
{"sequence": "GCAGAUAGAAGACUGGAAUTT against 1700024G13Rik", "z-score": "inactive: 0.424"}
{"sequence": "GGUGAAGGCCUAUGAGAAGTT against Nosip", "z-score": "inactive: -0.211"}
{"sequence": "GGCCGCACCAUGUAUGUCATT against Pck1", "z-score": "inactive: 0.866"}
{"sequence": "GGACCAUUCUUGCGUUCGUTT against Cacng7", "z-score": "inactive: 1.66"}
{"sequence": "GGCCUCAAGGUGAUGGAAATT against Cdcp3", "z-score": "inactive: -1.4"}
{"sequence": "GGAAAAUACAUUGAUGAGCTT against Xrcc4", "z-score": "inactive: -0.575"}
{"sequence": "GGUAGACACACACAUUCAUTT against Ampd3", "z-score": "inactive: 0.633"}
{"sequence": "CCAGAGGUCACGAUUACUUTT against Pcdha12", "z-score": "inactive: 0.0422"}
{"sequence": "GGAUCUUCAGGAAAACAGATT against Fam181b", "z-score": "inactive: -0.955"}
{"sequence": "GGCUGUAAAAAUUAGUAUGTT against A630001G21Rik", "z-score": "inactive: 0.423"}
{"sequence": "CCAUAUGAAAUCCCUGCAUTT against Irs3", "z-score": "inactive: 0.189"}
{"sequence": "GCACUCUUCUUCUCUAGCATT against Pramel27", "z-score": "inactive: 0.969"}
{"sequence": "CCCUGGUUGUUUGUAGAGUTT against Armt1", "z-score": "active: 2.38"}
{"sequence": "GUGAACAACAUCCAAGCGATT against Dhrs7c", "z-score": "inactive: 0.183"}
{"sequence": "GGCAGACCAUGAAUGCUGUTT against Kcna2", "z-score": "inactive: -0.84"}
{"sequence": "GGUGCUCACGUUUUUCUUATT against B3galnt1", "z-score": "inactive: 0.348"}
{"sequence": "GGAUUCUCUUCCAUCUUACTT against Olfr266", "z-score": "inactive: -1.31"}
{"sequence": "GCAGAUUCGGAAGUAAACATT against Rnf214", "z-score": "inactive: 0.169"}
{"sequence": "GGAGUAUUCAACAUUUGUATT against Trim11", "z-score": "inactive: -0.523"}
{"sequence": "GCGUGCUGUGUAAGAGUGUTT against Gja4", "z-score": "active: -2.5"}
{"sequence": "GGAAGAUGAACAUCAAACATT against Dglucy", "z-score": "inactive: 0.855"}
{"sequence": "CGCAUACAUCAGUGUGGCATT against A730085E03Rik", "z-score": "inactive: -0.395"}
{"sequence": "GGUGCUUUCCAGCUAUCCCTT against Acsm2", "z-score": "inactive: 0.804"}
{"sequence": "CGACAUGGAGAGAUGCACATT against Galnt14", "z-score": "inactive: -0.518"}
{"sequence": "CCCUCAAGGCUGAUAAACATT against Il17b", "z-score": "active: -2.26"}
{"sequence": "GGAUCGAAUGUACCAACGGTT against Rnase4", "z-score": "inactive: -0.613"}
{"sequence": "CCCACCUUAUGGGACAAAATT against Hlf", "z-score": "active: 2.05"}
{"sequence": "CCUAGCUGUUAGGAAGCAATT against Fat4", "z-score": "inactive: 0.0555"}
{"sequence": "GGAGAAUUGUUUUUACCAGTT against Bbox1", "z-score": "inactive: 0.13"}
